{
  "source": "patent US20150353933",
  "about": "“APTAMER AGAINST MIDKINE AND APPLICATIONS THEREOF” (RIBOMIC INC., published 2015)",
  "biological_target": "T1, midkine (AP-MK) (Homo sapiens) (UniProt P21741)",
  "T1 sequence (looked up)": "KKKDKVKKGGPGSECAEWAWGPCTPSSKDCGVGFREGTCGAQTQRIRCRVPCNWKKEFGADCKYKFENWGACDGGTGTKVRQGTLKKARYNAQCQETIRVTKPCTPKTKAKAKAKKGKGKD",
  "assay": "inhibition of the protein",
  "settings": "2'-OMe at 1-3 and 38-40; 2'-F at all other pyrimidines; negative control; inhibitory effect significantly small versus 7-1, TNB1 cells; protein in a lysate after overexpression; dose not given here",
  "note": "The comparison behind a weaker result is the experiment's own reference, which may not be listed here. Protein sequences can lack the tags named with them.",
  "data": [
    {"sequence": "GCCAUGGUGGUCAACCGUCGGUAUUGCCGCAGUUACUGGC [SEQ ID NO: 19 negative control]", "values": [
      {"measurement": "functional effect of the aptamer", "result": "less active"}
    ]}
  ]
}
